Here are results for three molecules from publication PMC9032445.

For one test, the target named is T1, Mus81-6His (S. pombe) (UniProt P87231).
T1 sequence: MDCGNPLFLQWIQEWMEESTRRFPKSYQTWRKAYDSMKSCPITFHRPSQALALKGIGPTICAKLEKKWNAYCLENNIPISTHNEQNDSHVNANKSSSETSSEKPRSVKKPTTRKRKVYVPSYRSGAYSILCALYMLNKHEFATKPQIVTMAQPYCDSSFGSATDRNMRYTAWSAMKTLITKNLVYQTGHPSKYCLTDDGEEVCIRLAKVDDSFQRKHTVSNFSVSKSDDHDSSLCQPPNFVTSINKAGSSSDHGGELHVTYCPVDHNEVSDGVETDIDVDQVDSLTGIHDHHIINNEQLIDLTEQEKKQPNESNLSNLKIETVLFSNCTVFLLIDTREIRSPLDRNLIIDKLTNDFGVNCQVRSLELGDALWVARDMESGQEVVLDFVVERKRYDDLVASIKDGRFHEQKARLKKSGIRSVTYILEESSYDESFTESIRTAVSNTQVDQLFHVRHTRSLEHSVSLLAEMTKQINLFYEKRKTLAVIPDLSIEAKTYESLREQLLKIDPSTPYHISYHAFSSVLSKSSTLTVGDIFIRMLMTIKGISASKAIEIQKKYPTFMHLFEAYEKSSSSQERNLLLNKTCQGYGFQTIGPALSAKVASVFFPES
As to the kind of experiment: pull-down; co-expression in E. coli Rosetta (DE3) pLysS; cleared lysate on Ni2+ agarose beads (Mus81-6His), imidazole eluate on amylose beads (MBP-Eme1), eluted with 10 mM maltose; 4°C.

Test [1] has as its target T2, Eme1 fragment (Eme1^1-130) containing SIM1 and SIM2 (S. pombe) (UniProt Q9C103).
T2 sequence: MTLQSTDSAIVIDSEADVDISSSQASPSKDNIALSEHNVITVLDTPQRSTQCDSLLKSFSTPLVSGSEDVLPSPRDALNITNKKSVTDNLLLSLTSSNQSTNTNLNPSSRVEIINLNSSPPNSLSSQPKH
As to the kind of experiment: two-hybrid; LexA / B42-AD system in S. cerevisiae EGY48 + pSH18-34; Eme1^1-130 as bait; clones spotted onto 3% Gal -URA-TRP-HIS-LEU and 3% Gal -URA-TRP-HIS-Xgal plates, 30°C, 2 to 4 days.

Results are given in words; binding and its absence hold for the method and conditions named. For part of these data: Binding seen in cells or lysates may run through a third protein. Some binding calls cover weakened binding; strength is not graded here. For part of these data: Where a sequence is shown, tags or fusion partners need not be part of it.

B1: MBP-Eme1 (wild type) (protein, UniProt Q9C103 1-735)
chain: MTLQSTDSAIVIDSEADVDISSSQASPSKDNIALSEHNVITVLDTPQRSTQCDSLLKSFSTPLVSGSEDVLPSPRDALNITNKKSVTDNLLLSLTSSNQSTNTNLNPSSRVEIINLNSSPPNSLSSQPKHQEFHLFHTPTIPRTTQLSSKTSSPIVIPDDNEQVASPLSKKAASLTSSPLKDFQSSPPLSTVLQKSHSLHDILLDTNDDDHFPFTQSPLTKTKSFNDALTSSSSILKPCMPSIASPTSNRLSHAPSTPNLFPNQDSSNTIDLINNRSKTSVENQERTFNLTSDVHLDSPTSPSKHSSIEPNTSQEDSFQELPSLNKLSIQSRAFKKMRLPKISRTTDTPPASTSNSNKKNLDKLKKMRKLCSRSLEPYELDSNTQRKRKRYEDSLKKSKTLDKVDSLNRKMAKELDRKNSKELQKINKVKRTKEECLSEIILLSPDDWASSWYSTVRSQLDSYNCQFVVNSNQPKDSIMWKRKVNNVFNSSTNRFELSIEHEQIEPFALLRLKCRDFIKYIEEDQADTFFHEMSEKFKGCKLILLLEGIPNYFKSLKAELNRQYAAAVNSGTRPLLFGSLSKYQNFTKEKLESEIVRFSFEHSILINTSNDEKETAQWIVSFTGDIALSRYKHFSKFSARASTTEIGHVKSADRIENSLNFMLRQILRVTPNIANAICDQFDSIPSLIHHLKTHGEESLTNVVIQSSISERNLGPVLSRRIYNTFLCKEASSDAP
B1: the binding result with Mus81-6His (S. pombe) was “binds”.

B2: MBP-Eme1^8AQ (all eight SQ/TQ sites mutated to AQ) (protein, UniProt Q9C103 1-735)
chain: MTLQSTDSAIVIDSEADVDISSAQASPSKDNIALSEHNVITVLDTPQRSAQCDSLLKSFSTPLVSGSEDVLPSPRDALNITNKKSVTDNLLLSLTSSNQSTNTNLNPSSRVEIINLNSSPPNSLSAQPKHQEFHLFHTPTIPRTAQLSSKTSSPIVIPDDNEQVASPLSKKAASLTSSPLKDFQSSPPLSTVLQKSHSLHDILLDTNDDDHFPFAQSPLTKTKSFNDALTSSSSILKPCMPSIASPTSNRLSHAPSTPNLFPNQDSSNTIDLINNRSKTSVENQERTFNLTSDVHLDSPTSPSKHSSIEPNTAQEDSFQELPSLNKLSIQSRAFKKMRLPKISRTTDTPPASTSNSNKKNLDKLKKMRKLCSRSLEPYELDSNAQRKRKRYEDSLKKSKTLDKVDSLNRKMAKELDRKNSKELQKINKVKRTKEECLSEIILLSPDDWASSWYSTVRAQLDSYNCQFVVNSNQPKDSIMWKRKVNNVFNSSTNRFELSIEHEQIEPFALLRLKCRDFIKYIEEDQADTFFHEMSEKFKGCKLILLLEGIPNYFKSLKAELNRQYAAAVNSGTRPLLFGSLSKYQNFTKEKLESEIVRFSFEHSILINTSNDEKETAQWIVSFTGDIALSRYKHFSKFSARASTTEIGHVKSADRIENSLNFMLRQILRVTPNIANAICDQFDSIPSLIHHLKTHGEESLTNVVIQSSISERNLGPVLSRRIYNTFLCKEASSDAP
Consider B2, for which the binding result in the test with Mus81-6His (S. pombe) is “binds”.

B3: Pmt3, the unique S. pombe SUMO ortholog (protein, UniProt O13351 1-117)
chain: MSESPSANISDADKSAITPTTGDTSQQDVKPSTEHINLKVVGQDNNEVFFKIKKTTEFSKLMKIYCARQGKSMNSLRFLVDGERIRPDQTPAELDMEDGDQIEAVLEQLGGCTHLCL
For B3, the binding entry in test [1] was “binds”.
